Reference: PubChem BioAssay AID1259308 (NCATS, 2017)
The whole screen tested about 59,000 reagents; this is an unselected part. Of all reagents, about 1,510 (2.6%) were called active. 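Calls use total luciferase alone and ignore viability, so some active siRNAs may act by altering cell number.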 Unmarked entries are inactive. The numbers tell different reagents against one gene apart. Reagent sequences are not shown.

Assay: 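Knock-downs that increase output of a recombinant reporter protein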 (primary screen)
Cells: human HEK293 embryonic kidney cells stably expressing firefly luciferase (HEK-CMV-Luc2-Hygro)
Reagents: single siRNA against human genes, 0.8 pmol siRNA per well
Time to read-out: 72 h
Measured: 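Reporter luminescence and viable-cell signal on separate replicate plates, given as percent of non-targeting control and median/MAD z-scores, plus per-cell luciferase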
Scale: total luciferase, z-score and total luciferase, % of control: higher = more reporter protein produced; luciferase per cell, z-score: higher = more reporter output per viable cell; viable cells, % of control: higher = more viable cells
Rule for the call: 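Active when the median/MAD z-score for overall luciferase is greater than 3; a gene was taken forward for validation with new siRNAs if at least two of its three siRNAs passed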
Calls: active = raised luciferase; inactive = no rise

| gene symbol | reagent | total luciferase, z-score | total luciferase, % of control | luciferase per cell, z-score | viable cells, % of control |
| --- | --- | --- | --- | --- | --- |
| DTNBP1 | 1 | 0.453 | 90.9 | 0.269 | 94.6 |
| DTNBP1 | 2 | 0.0962 | 83.8 | -0.127 | 96.8 |
| DTNBP1 | 3 | -0.465 | 72.6 | 0.159 | 77.8 |
| PROP1 | 1 | 3.69 (active) | 155 | 2.41 | 92.1 |
| PROP1 | 2 | -1.15 | 58.9 | -0.946 | 84.5 |
| PROP1 | 3 | -0.718 | 67.6 | 0.156 | 72.5 |
| LINC02905 | 1 | 0.506 | 92 | 0.0653 | 101 |
| LINC02905 | 2 | 0.798 | 97.8 | 1.01 | 83.8 |
| LINC02905 | 3 | -0.0225 | 81.4 | -0.0423 | 92 |
| TUBB6 | 1 | -0.245 | 77 | -0.283 | 92.7 |
| TUBB6 | 2 | 0.983 | 101 | 0.417 | 102 |
| TUBB6 | 3 | -0.324 | 75.4 | 0.521 | 73.5 |
| C11orf52 | 1 | 0.732 | 96.5 | 1.2 | 78.6 |
| C11orf52 | 2 | 0.61 | 94 | 0.227 | 99 |
| C11orf52 | 3 | -0.504 | 71.9 | -0.861 | 101 |
| ZC4H2 | 1 | 0.117 | 84.2 | -0.42 | 105 |
| ZC4H2 | 2 | 1.8 | 118 | 1.14 | 97.4 |
| ZC4H2 | 3 | -1.93 | 43.5 | -2.39 | 91.2 |
| NEU4 | 1 | 1.05 | 103 | 1.04 | 87.2 |
| NEU4 | 2 | 0.89 | 99.6 | 0.217 | 105 |
| NEU4 | 3 | 0.733 | 96.5 | 0.55 | 93.2 |
| CFAP73 | 1 | 0.387 | 89.6 | 0.146 | 96.3 |
| CFAP73 | 2 | 0.0524 | 82.9 | -0.838 | 116 |
| CFAP73 | 3 | 0.94 | 101 | -0.219 | 119 |
| GLIPR1L1 | 1 | 0.477 | 91.4 | 0.744 | 84 |
| GLIPR1L1 | 2 | 1.08 | 103 | 1.28 | 82.4 |
| GLIPR1L1 | 3 | 0.145 | 84.8 | 0.895 | 74.8 |
| MID1IP1 | 1 | -0.29 | 76.1 | -0.0431 | 86 |
| MID1IP1 | 2 | 1.45 | 111 | 0.7 | 103 |
| MID1IP1 | 3 | 1.51 | 112 | 2.8 | 59.7 |
| PPP2R2D | 1 | -0.161 | 78.7 | -0.646 | 104 |
| PPP2R2D | 2 | 0.198 | 85.8 | -0.208 | 101 |
| PPP2R2D | 3 | -2.1 | 40.1 | -1.44 | 65.4 |
| MYOCD | 1 | -1.48 | 52.4 | -0.683 | 70 |
| MYOCD | 2 | 0.533 | 92.5 | 0.52 | 90.1 |
| MYOCD | 3 | -0.569 | 70.6 | 0.137 | 76.1 |
| HP1BP3 | 1 | 1.14 | 105 | 0.677 | 97.8 |
| HP1BP3 | 2 | 2.29 | 127 | 1.49 | 96.2 |
| HP1BP3 | 3 | 0.809 | 98 | 0.0957 | 107 |
| PRR30 | 1 | 1.49 | 111 | 0.334 | 114 |
| PRR30 | 2 | 0.929 | 100 | 0.617 | 95.3 |
| PRR30 | 3 | -1.75 | 47.2 | -1.1 | 70.5 |
| LRIG3 | 1 | -0.421 | 73.5 | -0.585 | 95.8 |
| LRIG3 | 2 | 1.81 | 118 | 2.29 | 72.1 |
| LRIG3 | 3 | -0.165 | 78.6 | 0.331 | 80.5 |
| MAP1LC3A | 1 | 1.17 | 105 | 1.3 | 83.4 |
| MAP1LC3A | 2 | -2.52 | 31.8 | -3.05 | 79.2 |
| MAP1LC3A | 3 | -0.471 | 72.5 | -0.554 | 93.8 |
| CARD19 | 1 | -0.858 | 64.8 | 0.0684 | 71.1 |
| CARD19 | 2 | -1.27 | 56.6 | -0.0114 | 63.4 |
| CARD19 | 3 | 0.833 | 98.5 | 0.262 | 103 |
| RGS2 | 1 | -0.372 | 74.5 | 0.454 | 73.9 |
| RGS2 | 2 | 3.98 (active) | 161 | 2.58 | 91.1 |
| RGS2 | 3 | 1.88 | 119 | 1.82 | 82.5 |
| TYK2 | 1 | 0.00905 | 82.1 | -0.388 | 102 |
| TYK2 | 2 | 1.61 | 114 | 0.931 | 99.6 |
| TYK2 | 3 | -0.941 | 63.2 | -1.62 | 108 |

An excerpt taken from the entries so far:
| gene symbol | reagent | total luciferase, z-score | total luciferase, % of control | luciferase per cell, z-score | viable cells, % of control |
| --- | --- | --- | --- | --- | --- |
| DTNBP1 | 3 | -0.465 | 72.6 | 0.159 | 77.8 |
| PROP1 | 1 | 3.69 (active) | 155 | 2.41 | 92.1 |
| PROP1 | 2 | -1.15 | 58.9 | -0.946 | 84.5 |
| PROP1 | 3 | -0.718 | 67.6 | 0.156 | 72.5 |
| LINC02905 | 1 | 0.506 | 92 | 0.0653 | 101 |
| LINC02905 | 2 | 0.798 | 97.8 | 1.01 | 83.8 |
| LINC02905 | 3 | -0.0225 | 81.4 | -0.0423 | 92 |
| TUBB6 | 1 | -0.245 | 77 | -0.283 | 92.7 |
| TUBB6 | 2 | 0.983 | 101 | 0.417 | 102 |
| TUBB6 | 3 | -0.324 | 75.4 | 0.521 | 73.5 |
